Results published in PubChem BioAssay AID485341 (National Center for Advancing Translational Sciences (NCATS), 2010).
The whole screen tested about 330,000 compounds, of which about 1,700 (0.52%) were called active. These results got no clear call from the source, so the numbers are uncertain. Calls come from the whole dose curve; as a rule, active = well fitted inhibition curve with a large enough effect; inconclusive = small, poorly fitted or top-dose-only effect; inactive = no such curve, though single readings can be large or run the other way.

Protein sequences, listed by entry. Tags and fused reporters are not part of them.
UniProt P00811, whole entry: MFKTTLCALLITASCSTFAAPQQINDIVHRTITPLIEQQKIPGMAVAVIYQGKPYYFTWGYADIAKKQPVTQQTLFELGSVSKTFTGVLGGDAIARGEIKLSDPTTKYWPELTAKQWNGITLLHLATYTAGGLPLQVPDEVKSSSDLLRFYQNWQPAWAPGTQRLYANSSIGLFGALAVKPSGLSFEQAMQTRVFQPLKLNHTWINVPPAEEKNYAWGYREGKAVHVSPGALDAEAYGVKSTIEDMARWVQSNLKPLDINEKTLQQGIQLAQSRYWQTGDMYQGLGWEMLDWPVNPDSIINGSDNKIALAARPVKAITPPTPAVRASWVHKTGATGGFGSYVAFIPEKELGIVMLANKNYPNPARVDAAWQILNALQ

molecular target: Beta-lactamase (Escherichia coli (strain K12)) (UniProt P00811); assay: qHTS Inhibitors of AmpC Beta-Lactamase (assay without detergent); details: AmpC nitrocefin hydrolysis, absorbance 480 nm, 0.0001% Triton; note: nearly all actives have a fitted effect of over 20% in size
Description: NIH Molecular Libraries Probe Production Network [MLPCN] NIH Chemical Genomics Center [NCGC] Assay Provider: Professor Brian Shoichet, UCSF Assay Overview: This aggregation profiling approach exploits the sensitivity of aggregate formation to detergent. Inhibition of b-lactamase is measured in the presence and absence of 0.01% Triton X-100. This particular assay had the prescence of 0.01% Triton X-100. See Pubchem assay "Promiscuous and Specific Inhibitors of AmpC Beta-Lactamase (assay without detergent)" for related screen. Compounds that inhibit only in the absence of detergent are considered likely promiscuous aggregators. A screen of 1,030 compounds was performed in Brian Shoichet's lab in 96-well format. AmpC activity was measured by following the absorbance at 480 nm. Nitrocefin is a chromogenic substrate: while nitrocefin is yellow (lmax 390 nm), the product of its hydrolysis is red (lmax 486 nm, 17,000 M-1). AmpC beta lactamase was provided by Shoichet Lab, UCSF.
Buffer: 20 mM phosphate buffer, pH 7.0 Triton X-100: No Detergent screen: 0.0001%, Detergent screen: 0.01%. Reagents/Controls: Buffer in columns 3 and 4 as negative control (no enzyme). 5.3 nM AmpC in columns 1, 2, 5-48. […] The plates were immediately transferred to and read every 20 seconds for 4 min on ViewLux (Perkin-Elmer) High-throughput CCD imager using 480 nm absorbance protocol. […]
Potency is the fitted concentration of half-maximal effect.

SMILES	Potency
CCOP(C)(=S)SCC(=O)NC(C)(CC)C(=O)O (stereo unspecified)	inconclusive: 6.31 µM
